Measured values published in PMC7594455.

T1: Sus1-TAP (yeast (endogenous in yeast cells)) (UniProt Q6WNK7)
T1 sequence: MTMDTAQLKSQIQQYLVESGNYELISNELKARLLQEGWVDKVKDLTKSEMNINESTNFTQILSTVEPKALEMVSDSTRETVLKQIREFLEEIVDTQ

T2: Ubp8-TAP (yeast (endogenous in yeast cells)) (UniProt P50102)
T2 sequence: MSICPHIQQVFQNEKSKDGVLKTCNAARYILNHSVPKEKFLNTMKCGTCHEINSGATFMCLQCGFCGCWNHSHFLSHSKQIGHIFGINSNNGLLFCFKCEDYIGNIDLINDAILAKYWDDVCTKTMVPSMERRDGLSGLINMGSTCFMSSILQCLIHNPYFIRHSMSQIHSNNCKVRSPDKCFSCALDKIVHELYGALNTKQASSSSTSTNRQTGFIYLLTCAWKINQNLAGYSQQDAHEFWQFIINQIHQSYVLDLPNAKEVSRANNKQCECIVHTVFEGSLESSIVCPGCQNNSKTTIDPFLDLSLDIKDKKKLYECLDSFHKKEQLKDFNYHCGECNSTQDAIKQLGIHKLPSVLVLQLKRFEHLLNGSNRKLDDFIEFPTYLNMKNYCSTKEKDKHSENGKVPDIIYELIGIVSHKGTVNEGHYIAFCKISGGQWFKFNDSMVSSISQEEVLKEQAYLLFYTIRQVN

B1: Ubp8 (enzyme, UniProt P50102 1-471)
chain: T2 sequence
B2: Sgf11 (protein, UniProt Q03067 1-99)
chain: MTEETITIDSISNGILNNLLTTLIQDIVARETTQQQLLKTRYPDLRSYYFDPNGSLDINGLQKQQESSQYIHCENCGRDVSANRLAAHLQRCLSRGARR
B3: Sgf73 (protein, UniProt P53165 1-657)
chain: MRSGDAEIKGIKPKVIEEYSLSQGSGPSNDSWKSLMSSAKDTPLQYDHMNRESLKKYFNPNAQLIEDPLDKPIQYRVCEKCGKPLALTAIVDHLENHCAGASGKSSTDPRDESTRETIRNGVESTGRNNNDDDNSNDNNNDDDDDDDNDDNEDDDDADDDDDNSNGANYKKNDSSFNPLKRSTSMESANTPNMDTKRSKTGTPQTFSSSIKKQKKVKQRNPTEKHLIDFNKQCGVELPEGGYCARSLTCKSHSMGAKRAVSGRSKPYDVLLADYHREHQTKIGAAAEKRAKQQELQKLQKQIQKEQKKHTQQQKQGQRSKQRNVNGGKSAKNGGKSTVHNGNNINEIGHVNLTPEEETTQVLNGVSRSFPLPLESTVLSSVRYRTKYFRMREMFASSFSVKPGYTSPGYGAIHSRVGCLDLDRTTDYKFRVRTPQPINHLTNQNLNPKQIQRLQQQRALQAQLLSQQQQQQQQQQQHHSPQAQAQASTQQPTQGMVPNHFPGGATNSSFNANVSSKQIQQQQQQQQHKSQDTGLTPLEIQSQQQKLRQQQLQQQKFEAAASYLANATKLMQESNQDSHLSGTHNNNSSKNGNNNLMTMKASISSPNTSVNSIQSPPSVNSVNGSGQGVSTGINVSGNNGRIEVGIGNSVNPYNGRIN
B4: Sus1 (protein, UniProt Q6WNK7 1-96)
chain: T1 sequence

Each binder was assayed against T1, Sus1-TAP (yeast (endogenous in yeast cells)) (assay: affinity purification with mass spectrometry; Sus1-TAP purified by tandem affinity purification (IgG Sepharose, TEV release, calmodulin beads, EGTA elution) from extracts of wild-type cells, of cells lacking SPT7, or ADA1 and/or SPT20, and of sgf29Δ cells; LC MS/MS (MudPIT), MASCOT).

binding | Binder
binds | B1
binds | B2
binds | B3

What follows are binders tested against T2, Ubp8-TAP (yeast (endogenous in yeast cells)) (assay: affinity purification with mass spectrometry; Ubp8-TAP purified by tandem affinity purification from extracts of spt7Δ cells; LC MS/MS, MASCOT).

binding | Binder
binds | B2
binds | B3
binds | B4

These are yes or no findings as the source states them, for the method shown. Binding seen in cells or lysates may run through a third protein. A yes stands for co-enrichment or nearness to the bait. Other partners may have been found.
